Test results: the supplement of paper PMC10849652
The list shows a part of the results.

Chains of the proteins cited; added tags and fusions are not shown. Lines headed by an entry give the natural chain unless they say otherwise; changes in a name come on top.
UniProt Q9P0W2: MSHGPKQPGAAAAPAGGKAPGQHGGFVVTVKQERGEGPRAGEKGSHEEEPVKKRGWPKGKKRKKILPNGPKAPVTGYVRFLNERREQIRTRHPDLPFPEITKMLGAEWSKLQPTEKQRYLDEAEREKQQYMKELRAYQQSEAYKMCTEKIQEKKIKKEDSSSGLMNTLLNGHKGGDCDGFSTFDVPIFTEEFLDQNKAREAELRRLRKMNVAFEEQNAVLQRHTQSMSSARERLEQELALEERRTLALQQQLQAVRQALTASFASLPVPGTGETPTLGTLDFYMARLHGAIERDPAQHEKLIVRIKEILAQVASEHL
UniProt Q9BW72: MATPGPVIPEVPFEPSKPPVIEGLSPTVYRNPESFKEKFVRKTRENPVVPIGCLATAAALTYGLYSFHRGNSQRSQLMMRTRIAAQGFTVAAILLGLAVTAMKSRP
UniProt Q96EW2: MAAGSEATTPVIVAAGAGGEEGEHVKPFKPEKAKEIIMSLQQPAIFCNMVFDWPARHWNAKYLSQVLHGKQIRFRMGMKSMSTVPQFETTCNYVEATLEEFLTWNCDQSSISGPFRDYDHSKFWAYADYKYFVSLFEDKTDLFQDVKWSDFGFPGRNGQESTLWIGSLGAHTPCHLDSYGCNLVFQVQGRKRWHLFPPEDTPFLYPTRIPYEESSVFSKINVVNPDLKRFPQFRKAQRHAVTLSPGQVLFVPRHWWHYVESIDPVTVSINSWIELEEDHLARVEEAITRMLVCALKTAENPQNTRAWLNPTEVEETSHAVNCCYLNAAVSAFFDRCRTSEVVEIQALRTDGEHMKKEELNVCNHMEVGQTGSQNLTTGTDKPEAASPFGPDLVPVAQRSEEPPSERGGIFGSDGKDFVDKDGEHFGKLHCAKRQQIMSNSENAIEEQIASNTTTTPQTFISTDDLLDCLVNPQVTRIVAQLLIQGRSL
UniProt Q96ED9: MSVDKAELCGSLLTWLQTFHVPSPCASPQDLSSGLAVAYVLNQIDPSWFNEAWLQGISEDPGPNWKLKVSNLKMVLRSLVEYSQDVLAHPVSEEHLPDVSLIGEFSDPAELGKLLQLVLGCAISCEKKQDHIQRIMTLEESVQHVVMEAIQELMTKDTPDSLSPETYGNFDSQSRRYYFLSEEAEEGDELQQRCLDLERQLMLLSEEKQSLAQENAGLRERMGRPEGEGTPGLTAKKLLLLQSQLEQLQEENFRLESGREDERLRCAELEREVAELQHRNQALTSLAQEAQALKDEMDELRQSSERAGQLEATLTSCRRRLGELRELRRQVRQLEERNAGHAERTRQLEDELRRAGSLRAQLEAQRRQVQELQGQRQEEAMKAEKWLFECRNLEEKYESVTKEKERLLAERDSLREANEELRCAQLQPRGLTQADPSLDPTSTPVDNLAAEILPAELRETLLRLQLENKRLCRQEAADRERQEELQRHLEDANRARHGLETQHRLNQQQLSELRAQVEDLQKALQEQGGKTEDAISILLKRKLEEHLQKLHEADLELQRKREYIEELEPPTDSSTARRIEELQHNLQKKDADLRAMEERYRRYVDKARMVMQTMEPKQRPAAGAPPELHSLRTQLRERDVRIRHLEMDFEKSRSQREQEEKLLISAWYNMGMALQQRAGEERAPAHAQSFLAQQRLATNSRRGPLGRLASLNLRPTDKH
UniProt Q9NQG7: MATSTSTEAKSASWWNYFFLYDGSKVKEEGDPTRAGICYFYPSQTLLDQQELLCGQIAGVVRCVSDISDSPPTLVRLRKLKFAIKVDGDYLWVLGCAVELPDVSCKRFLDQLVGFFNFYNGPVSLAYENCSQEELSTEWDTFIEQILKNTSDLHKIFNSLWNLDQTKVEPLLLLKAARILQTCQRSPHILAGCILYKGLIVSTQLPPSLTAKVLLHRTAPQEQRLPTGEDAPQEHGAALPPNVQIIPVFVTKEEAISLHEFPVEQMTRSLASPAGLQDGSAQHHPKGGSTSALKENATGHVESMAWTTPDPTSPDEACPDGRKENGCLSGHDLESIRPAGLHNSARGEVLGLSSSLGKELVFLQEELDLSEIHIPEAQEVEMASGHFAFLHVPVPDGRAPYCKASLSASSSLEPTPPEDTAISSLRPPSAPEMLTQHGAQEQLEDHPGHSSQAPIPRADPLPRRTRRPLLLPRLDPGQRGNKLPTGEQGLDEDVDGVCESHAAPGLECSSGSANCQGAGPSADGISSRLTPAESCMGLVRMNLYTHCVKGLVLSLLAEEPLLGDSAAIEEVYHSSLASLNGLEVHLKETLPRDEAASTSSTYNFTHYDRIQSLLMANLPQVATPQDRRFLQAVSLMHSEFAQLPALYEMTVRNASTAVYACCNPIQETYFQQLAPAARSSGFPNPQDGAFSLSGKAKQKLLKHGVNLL
UniProt P30939: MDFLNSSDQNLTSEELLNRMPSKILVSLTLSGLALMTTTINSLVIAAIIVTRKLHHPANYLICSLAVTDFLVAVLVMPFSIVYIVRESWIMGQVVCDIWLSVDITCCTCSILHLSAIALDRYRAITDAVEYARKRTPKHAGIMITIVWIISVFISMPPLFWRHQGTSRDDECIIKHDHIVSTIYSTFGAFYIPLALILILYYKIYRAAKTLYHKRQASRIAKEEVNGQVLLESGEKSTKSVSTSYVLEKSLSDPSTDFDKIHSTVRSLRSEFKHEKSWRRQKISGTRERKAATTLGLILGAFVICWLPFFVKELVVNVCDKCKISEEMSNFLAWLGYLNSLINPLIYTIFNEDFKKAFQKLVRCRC
UniProt P54652, whole entry, looked up: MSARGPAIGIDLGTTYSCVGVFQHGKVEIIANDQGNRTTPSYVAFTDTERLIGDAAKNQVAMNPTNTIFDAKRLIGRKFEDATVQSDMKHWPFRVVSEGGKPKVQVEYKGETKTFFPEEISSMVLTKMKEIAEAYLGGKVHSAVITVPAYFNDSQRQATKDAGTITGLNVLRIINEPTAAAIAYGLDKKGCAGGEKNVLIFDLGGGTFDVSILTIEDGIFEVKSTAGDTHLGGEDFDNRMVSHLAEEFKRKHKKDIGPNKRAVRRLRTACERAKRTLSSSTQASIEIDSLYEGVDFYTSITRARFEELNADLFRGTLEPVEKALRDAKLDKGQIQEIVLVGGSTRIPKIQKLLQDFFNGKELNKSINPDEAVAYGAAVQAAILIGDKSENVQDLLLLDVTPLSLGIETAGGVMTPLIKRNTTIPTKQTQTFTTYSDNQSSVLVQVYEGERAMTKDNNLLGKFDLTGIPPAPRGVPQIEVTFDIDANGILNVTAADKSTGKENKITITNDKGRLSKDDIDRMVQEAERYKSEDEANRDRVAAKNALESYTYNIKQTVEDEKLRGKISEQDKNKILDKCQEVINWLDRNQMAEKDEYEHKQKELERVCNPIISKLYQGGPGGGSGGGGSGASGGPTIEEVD
UniProt Q9NWT6: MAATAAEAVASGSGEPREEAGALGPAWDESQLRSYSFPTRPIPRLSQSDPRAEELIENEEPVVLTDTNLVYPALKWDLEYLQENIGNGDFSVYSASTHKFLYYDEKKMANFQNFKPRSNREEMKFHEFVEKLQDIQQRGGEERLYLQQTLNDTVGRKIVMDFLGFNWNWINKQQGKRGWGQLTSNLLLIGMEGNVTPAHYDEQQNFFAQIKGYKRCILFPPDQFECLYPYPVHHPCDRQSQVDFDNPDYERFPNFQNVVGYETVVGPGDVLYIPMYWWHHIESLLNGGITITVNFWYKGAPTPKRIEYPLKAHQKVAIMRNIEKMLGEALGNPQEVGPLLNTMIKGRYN
UniProt Q9Y241: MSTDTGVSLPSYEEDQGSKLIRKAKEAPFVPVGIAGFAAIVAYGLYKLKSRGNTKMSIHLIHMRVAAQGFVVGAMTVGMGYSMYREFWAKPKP
UniProt Q05084: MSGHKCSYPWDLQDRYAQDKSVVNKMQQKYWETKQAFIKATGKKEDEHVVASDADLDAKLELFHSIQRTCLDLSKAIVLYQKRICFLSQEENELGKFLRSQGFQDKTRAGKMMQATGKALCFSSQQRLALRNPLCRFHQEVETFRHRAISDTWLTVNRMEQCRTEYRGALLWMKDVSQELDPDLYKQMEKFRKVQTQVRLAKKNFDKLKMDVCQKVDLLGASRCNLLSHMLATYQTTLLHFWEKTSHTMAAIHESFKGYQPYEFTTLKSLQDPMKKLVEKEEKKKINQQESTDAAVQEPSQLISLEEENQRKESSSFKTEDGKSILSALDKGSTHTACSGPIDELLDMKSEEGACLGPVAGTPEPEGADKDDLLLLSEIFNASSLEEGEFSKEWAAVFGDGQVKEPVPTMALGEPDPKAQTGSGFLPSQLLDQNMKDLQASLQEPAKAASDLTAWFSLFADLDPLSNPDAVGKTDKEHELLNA
UniProt Q92902: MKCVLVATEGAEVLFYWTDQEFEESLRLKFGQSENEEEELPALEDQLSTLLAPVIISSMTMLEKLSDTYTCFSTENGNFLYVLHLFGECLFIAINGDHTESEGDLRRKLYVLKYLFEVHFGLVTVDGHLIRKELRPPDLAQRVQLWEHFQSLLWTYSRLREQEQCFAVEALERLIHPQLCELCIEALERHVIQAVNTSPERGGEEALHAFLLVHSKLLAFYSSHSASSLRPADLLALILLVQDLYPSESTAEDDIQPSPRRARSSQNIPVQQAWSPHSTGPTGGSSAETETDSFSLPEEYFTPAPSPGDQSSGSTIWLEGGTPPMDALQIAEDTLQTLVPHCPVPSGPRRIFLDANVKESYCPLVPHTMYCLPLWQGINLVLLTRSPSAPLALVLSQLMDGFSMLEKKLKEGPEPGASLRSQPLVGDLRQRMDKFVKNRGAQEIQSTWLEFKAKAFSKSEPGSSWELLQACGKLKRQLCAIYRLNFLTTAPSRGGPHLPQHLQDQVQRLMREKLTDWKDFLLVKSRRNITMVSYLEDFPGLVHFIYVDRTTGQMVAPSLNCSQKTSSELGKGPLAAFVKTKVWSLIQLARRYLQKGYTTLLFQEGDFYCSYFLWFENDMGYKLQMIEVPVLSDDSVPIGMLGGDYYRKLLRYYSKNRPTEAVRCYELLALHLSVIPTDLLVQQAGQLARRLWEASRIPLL
UniProt P41134: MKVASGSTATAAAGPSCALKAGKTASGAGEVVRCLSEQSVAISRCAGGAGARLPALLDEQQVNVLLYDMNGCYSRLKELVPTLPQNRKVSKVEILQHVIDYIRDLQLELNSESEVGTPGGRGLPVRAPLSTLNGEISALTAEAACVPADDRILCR
UniProt Q96FZ2: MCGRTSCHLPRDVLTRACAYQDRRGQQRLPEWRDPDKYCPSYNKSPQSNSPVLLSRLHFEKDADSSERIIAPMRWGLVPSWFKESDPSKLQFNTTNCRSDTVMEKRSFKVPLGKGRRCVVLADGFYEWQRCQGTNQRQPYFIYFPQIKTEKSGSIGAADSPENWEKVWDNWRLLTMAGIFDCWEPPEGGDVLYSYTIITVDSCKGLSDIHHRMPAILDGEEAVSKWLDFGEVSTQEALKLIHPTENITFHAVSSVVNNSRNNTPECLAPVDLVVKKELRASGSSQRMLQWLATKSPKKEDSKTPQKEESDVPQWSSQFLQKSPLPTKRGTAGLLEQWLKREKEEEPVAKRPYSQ

What follows are targets tested with Cc1ccc(-n2nc(C(C)(C)C)cc2NC(=O)Nc2ccc(OCCN3CCOCC3)c3ccccc23)cc1 [doramapimod] (assay: log2 fold change, soluble protein after heating vs DMSO (PISA); higher = thermal stabilisation; K562 cells, 10 uM, 30 min; active = over 0.2 and 3.5 SD of the protein, either way, in both replicates (recomputed)).
Outline: (§1)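 Thermal stability values are relative to control samples and come from duplicates. They are expressed as log2 fold changes. For measurement, K562 cells (2×10^6 cells/mL) received 10 μM compound for 30 min, and aliquots were heated for 3 min over 48°C-58°C, pooled, and extracted at 4°C in PBS with 0.5% NP-40. Soluble protein, the supernatant after 21,000xg for 90 min, was quantified by TMTpro 16plex LC-MS/MS with equalised channel sums.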
With HMG20B (UniProt Q9P0W2) the log2 fold change was inactive: -0.017. For HIGD2A (UniProt Q9BW72), the log2 fold change was inactive: 0.006. For HSPBAP1 (UniProt Q96EW2), the log2 fold change was inactive: 0.089. HOOK2 (UniProt Q96ED9) was tested, and the log2 fold change was inactive: -0.053. With HMBS (UniProt F5H226) the log2 fold change was inactive: 0.093. With HPS4 isoform 4 (UniProt Q9NQG7) the log2 fold change was inactive: 0.051. For HTR1F (UniProt P30939), the log2 fold change was inactive: -0.129. In the case of HSPA2 (UniProt P54652), the log2 fold change is reported as inactive: -0.003. HNRNPUL1 (UniProt M0R247) was tested, and the log2 fold change was inactive: -0.014. For HIF1AN (UniProt Q9NWT6), the log2 fold change was inactive: -0.002. For HIGD1A isoform 2 (UniProt Q9Y241), the log2 fold change was inactive: -0.15. For ICA1 isoform 2 (UniProt Q05084), the log2 fold change was inactive: 0.085. For HIST2H2AA3 (UniProt Q6FI13), the log2 fold change was inactive: 0.144.

Each target was assayed with Cc1ccc(C(=O)N(CCCN)[C@@H](c2nc3cc(Cl)ccc3c(=O)n2Cc2ccccc2)C(C)C)cc1 [ispinesib] in the same assay as above.
Outline: as §1
In the case of HPS1 (UniProt Q92902), the log2 fold change is reported as inactive: 0.101. In the case of HMGN5 (UniProt Q5JSK9), the log2 fold change is reported as inactive: -0.255. For HPS4 isoform 4 (UniProt Q9NQG7), the log2 fold change was inactive: 0.199. For ID1 (UniProt P41134), the log2 fold change was inactive: -0.11. For HSPA2 (UniProt P54652), the log2 fold change was inactive: -0.025. In the case of HMCES (UniProt Q96FZ2), the log2 fold change is reported as inactive: -0.029. For HIF1AN (UniProt Q9NWT6), the log2 fold change was inactive: 0.017. HIGD1A isoform 2 (UniProt Q9Y241) was tested, and the log2 fold change was inactive: -0.075. In the case of ICA1 isoform 2 (UniProt Q05084), the log2 fold change is reported as inactive: 0.14. With HIST2H2AA3 (UniProt Q6FI13) the log2 fold change was inactive: -0.053.
